Drawing on paper PMC8988195, this text covers binding for 1 molecule.

Results are given in words; binding and its absence hold for the method and conditions named.

The test deals with bovine serum albumin (bovine), P02769. In words: ELISA; plates coated with recombinant proteins (1 μg/ml) or BSA; blocked with PBS/2% BSA; normal human serum (0–100% in PBS) for 90 min at 37°C; detected with anti-FH, anti-C4BP or anti-PLG and HRP conjugate, read at 450 nm; only the target purified. To be noted: remark: other sources report otherwise. A general note: ELISA stands for enzyme-linked immunosorbent assay.

B1: Factor H, P08603 19-1231 (protein)
chain: EDCNELPPRRNTEILTGSWSDQTYPEGTQAIYKCRPGYRSLGNVIMVCRKGEWVALNPLRKCQKRPCGHPGDTPFGTFTLTGGNVFEYGVKAVYTCNEGYQLLGEINYRECDTDGWTNDIPICEVVKCLPVTAPENGKIVSSAMEPDREYHFGQAVRFVCNSGYKIEGDEEMHCSDDGFWSKEKPKCVEISCKSPDVINGSPISQKIIYKENERFQYKCNMGYEYSERGDAVCTESGWRPLPSCEEKSCDNPYIPNGDYSPLRIKHRTGDEITYQCRNGFYPATRGNTAKCTSTGWIPAPRCTLKPCDYPDIKHGGLYHENMRRPYFPVAVGKYYSYYCDEHFETPSGSYWDHIHCTQDGWSPAVPCLRKCYFPYLENGYNQNYGRKFVQGKSIDVACHPGYALPKAQTTVTCMENGWSPTPRCIRVKTCSKSSIDIENGFISESQYTYALKEKAKYQCKLGYVTADGETSGSITCGKDGWSAQPTCIKSCDIPVFMNARTKNDFTWFKLNDTLDYECHDGYESNTGSTTGSIVCGYNGWSDLPICYERECELPKIDVHLVPDRKKDQYKVGEVLKFSCKPGFTIVGPNSVQCYHFGLSPDLPICKEQVQSCGPPPELLNGNVKEKTKEEYGHSEVVEYYCNPRFLMKGPNKIQCVDGEWTTLPVCIVEESTCGDIPELEHGWAQLSSPPYYYGDSVEFNCSESFTMIGHRSITCIHGVWTQLPQCVAIDKLKKCKSSNLIILEEHLKNKKEFDHNSNIRYRCRGKEGWIHTVCINGRWDPEVNCSMAQIQLCPPPPQIPNSHNMTTTLNYRDGEKVSVLCQENYLIQEGEEITCKDGRWQSIPLCVEKIPCSQPPQIEHGTINSSRSSQESYAHGTKLSYTCEGGFRISEENETTCYMGKWSSPPQCEGLPCKSPPEISHGVVAHMSDSYQYGEEVTYKCFEGFGIDGPAIAKCLGEKWSHPPSCIKTDCLSLPSFENAIPMGEKKDVYKAGEQVTYTCATYYKMDGASNVTCINSRWTGRPTCRDTSCVNPPTVQNAYIVSRQMSKYPSGERVRYQCRSPYEMFGDEEVMCLNGNWTEPPQCKDSTGKCGPPPPIDNGDITSFPLSVYAPASSVEYQCQNLYQLEGNKRITCRNGQWSEPPKCLHPCVISREIMENYNIALRWTAKQKLYSRTGESVEFVCKRGYRLSSRSHTLRTTCWDGKLEYPTCAKR
Regarding B1, the binding entry is recorded as “no binding”.
